# Assay results reported in PMC7773179, “Development and application of high-throughput screens for the discovery of compounds that disrupt ErbB4 signaling: Candidate cancer therapeutics” (PLoS ONE, 2020).
# Tested on: BaF3/EGFR+ErbB4 cells
# Assay: ErbB4-dependent (NRG1β-induced, IL3-independent) proliferation of BaF3/EGFR+ErbB4 cells, semi-automated MTT assay
# Format: cell-based, Mouse
# Settings: category from IC50 against NRG1β and selectivity IC50,IL3:IC50,NRG1β
# Description: This proliferation is dependent upon exogenous ErbB4 expression.
# As noted earlier, the BaF3/EGFR+ErbB4 cells are IL3 dependent and this dependency can be rescued by stimulation of ErbB4 coupling to cell proliferation. Therefore, the specificity of each of the 19 candidate ErbB4 inhibitors was tested by assaying inhibition of ErbB4-dependent and IL3-dependent cellular proliferation in parallel.
row,Structure (SMILES),Priority
1,CCC(=O)NC(N(Cc1ccccc1)Cc1ccccc1)C(Cl)(Cl)Cl (stereo not drawn) [SR-33483],Medium (IC50 of less than 30 μM against NRG1β-induced ErbB4-dependent cell proliferation AND a selectivity for ErbB4 over IL3 of at least 3)
2,CCCOc1ccc(C(=O)C(CCCCC(CN(C)C)C(=O)c2ccc(OCCC)cc2)CN(C)C)cc1 (stereo not drawn) [SR-33486],Medium (IC50 of less than 30 μM against NRG1β-induced ErbB4-dependent cell proliferation AND a selectivity for ErbB4 over IL3 of at least 3)
3,O=C(Nc1cccc(O)c1)c1cc2nc(-c3ccccc3)cc(-c3ccccc3)n2n1 [SR-33487],"High (IC50 against NRG1β-induced ErbB4-dependent cell proliferation of less than 10 μM and a selectivity for ErbB4 over IL3 (the IC50 value against IL3 divided by the IC50 value against NRG1β—IC50,IL3:IC50,NRG1β) of greater than 10)"
4,CCOC(=O)C1=C(N)OC2=C(C(=O)CC(C)(C)C2)C1C1CCCCC1 (stereo not drawn) [SR-33491],Medium (IC50 of less than 30 μM against NRG1β-induced ErbB4-dependent cell proliferation AND a selectivity for ErbB4 over IL3 of at least 3)
5,O=C(CC1c2ccccc2Oc2ccccc21)NCCOc1ccccc1 [SR-33492],Medium (IC50 of less than 30 μM against NRG1β-induced ErbB4-dependent cell proliferation AND a selectivity for ErbB4 over IL3 of at least 3)
6,O=C1NC2=Nc3ccccc3SC(c3ccccc3)=C2C(c2ccc(O)cc2)N1 (stereo not drawn) [SR-33494],Medium (IC50 of less than 30 μM against NRG1β-induced ErbB4-dependent cell proliferation AND a selectivity for ErbB4 over IL3 of at least 3)
